This is one part of the list.

Experimental findings from article PMC7819943, “Rice protein-binding microarrays: a tool to detect cis-acting elements near promoter regions in rice” are described below.

The target of the assay is T1, OsSMF1 (Oryza sativa, UniProt Q6ZLB0 1-436).
T1 sequence: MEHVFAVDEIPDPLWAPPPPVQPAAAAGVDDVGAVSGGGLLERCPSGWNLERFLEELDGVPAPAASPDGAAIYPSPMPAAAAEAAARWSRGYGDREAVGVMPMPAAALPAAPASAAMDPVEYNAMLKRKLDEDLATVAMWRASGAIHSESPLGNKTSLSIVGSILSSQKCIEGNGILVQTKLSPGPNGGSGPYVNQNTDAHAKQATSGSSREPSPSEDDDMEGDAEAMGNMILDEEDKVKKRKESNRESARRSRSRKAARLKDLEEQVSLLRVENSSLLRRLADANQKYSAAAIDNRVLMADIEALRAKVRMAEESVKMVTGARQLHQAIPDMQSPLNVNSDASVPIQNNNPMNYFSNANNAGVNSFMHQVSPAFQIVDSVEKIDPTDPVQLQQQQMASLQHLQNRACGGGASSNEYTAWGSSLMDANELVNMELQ
The experiment in a line: protein-binding microarray (RPBM); PBS, 2% BSA, 51.3 ng/ul salmon testes DNA, 50 uM zinc acetate, 200 nM TF, 25 C, 1 h; high values mean tight binding. The following applies: protein: recombinant; tags: N-terminal polyhistidine and DsRed monomer fusion (pET32a); chain copies: 2; label: CyDye5-dUTP incorporated in the synthesized complementary strand; 3' TTTTT single-stranded linker to array surface; dsDNA, one strand shown. The gist of the method:
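The binding signal is fluorescence intensity per array feature (arbitrary units). Readings came from an Axon 4000B scanner after a washed, 2% BSA-blocked, double-stranded custom Agilent array had been incubated for 1 h at 25 °C with 200 nM protein and 50 µM zinc acetate. The protein was a Ni–NTA-purified transcription factor fused N-terminally to polyhistidine and DsRed, expressed in E. coli BL21-CodonPlus.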
In the case of “AGCCCGCCGCGTCGACATCACCGCAGCCGCTCTCGTCGAGCGGAGTCACCTAGTGCAG”, the binding signal was 3500 fluorescence intensity (a.u.). For “ACCCACAACATCACAGCACGGTTGCCGCTTGCTCCGGTGTCGGAGTCACCTAGTGCAG”, the binding signal was 3780 fluorescence intensity (a.u.). For “CACCTAACCGTTCTCACTGACGTGTGGGACATGACGGGCTCGGAGTCACCTAGTGCAG”, the binding signal was 4890 fluorescence intensity (a.u.).

Consider “GAAAATAGGAACAGAGTAGGAGTGGAGAGCTCGTTGGAGGCGGAGTCACCTAGTGCAG”, for which the binding signal is 4180 fluorescence intensity (a.u.). As for “CTCATTTTGTCATCAGTAATGGAGATGTCATCACTACTACCGGAGTCACCTAGTGCAG”, the figure is 3960 fluorescence intensity (a.u.); as for “CCACCTGCCACCCACCGTCCGCGTTCGCGCGCGGCGTACCCGGAGTCACCTAGTGCAG”, 4690 fluorescence intensity (a.u.); as for “ACTTTCCCACCACGTACGCCCGCCACTCGCGCCGTCCCCACGGAGTCACCTAGTGCAG”, 5250 fluorescence intensity (a.u.). As for “CCACCACCACCACCATACAACCTACTATGATGGCGTACAGCGGAGTCACCTAGTGCAG”, the figure is 19900 fluorescence intensity (a.u.); as for “AGACGACGTGCCGCGGGTCACGTGTCCTCGTGGCACGCTACGGAGTCACCTAGTGCAG”, 4060 fluorescence intensity (a.u.); as for “GACTTGGTTGCGTAACTTTGCACTCGTTTTCCCTTGGGGACGGAGTCACCTAGTGCAG”, 10400 fluorescence intensity (a.u.). As for “GTCCGCCTTGAACTCCTCCACGTCCTTCCTCTTGCAGATCCGGAGTCACCTAGTGCAG”, the figure is 7660 fluorescence intensity (a.u.). For “TAGTCGTCGTATCTTGATGACACGTGCGACCGGCCCGCGCCGGAGTCACCTAGTGCAG”, the binding signal was 5540 fluorescence intensity (a.u.). As for “CAATCCACATCTTCAGCACTTCAATGACTCTGAGCAAATCCGGAGTCACCTAGTGCAG”, the figure is 3560 fluorescence intensity (a.u.).

Consider “GACTCCGCGCGCACGGCCGGTGACTCGACTGCCTCGTCTCCGGAGTCACCTAGTGCAG”, for which the binding signal is 3700 fluorescence intensity (a.u.). For “AAGGCCAGCTTCGGCATCGGCACCGACGATGACGCCACCGCGGAGTCACCTAGTGCAG”, the binding signal is 5610 fluorescence intensity (a.u.). Regarding “AACGCTGCGTCAGGAGAGCGACCACACGGTGTCCCGTCCCCGGAGTCACCTAGTGCAG”, the binding signal was 3260 fluorescence intensity (a.u.). As for “ACACTAATTTCAAGGTTGCTCGTGAGTCATAATCCTGACGCGGAGTCACCTAGTGCAG”, the figure is 7720 fluorescence intensity (a.u.); as for “ATCTCTTTGATAGTTGACATCGAGGCAGTGATTAATTAAGCGGAGTCACCTAGTGCAG”, 3400 fluorescence intensity (a.u.).

On to “CGCTTCTCTCCCTGAGCTCGGCCTCGTGTCACTGACGTCGCGGAGTCACCTAGTGCAG”, for which the binding signal was 4390 fluorescence intensity (a.u.). As for “AACCACCCTCCGCCGCCGCCGCCGCTCGCCGTAGTCACCTCGGAGTCACCTAGTGCAG”, the figure is 3180 fluorescence intensity (a.u.). “TCCAGGGCCCCATCTACGTCGGCACCGGCTGCTTGTTCCGCGGAGTCACCTAGTGCAG”: the binding signal was 3900 fluorescence intensity (a.u.).

Turning to “GGCTGCATCCATGGCCCAGGCATGACAACCCATCGTGCTTCGGAGTCACCTAGTGCAG”, the binding signal was 3450 fluorescence intensity (a.u.). With “AAGATGGTGTAGGAGAGACTGACGTGTGGGTCCCAGTGTCCGGAGTCACCTAGTGCAG” the figure was 6640 fluorescence intensity (a.u.); with “TTAGGTGGAGCTGAAACTGTTTGGCTGAGCTGGGGTGGAGCGGAGTCACCTAGTGCAG”, 3700 fluorescence intensity (a.u.); with “CCCCGTTGCCGACATCGATGTGTGCCACACTATCGGACCTCGGAGTCACCTAGTGCAG”, 3360 fluorescence intensity (a.u.). With “GTGTGTGTGTGTGTGTGTGTGTGCGTGGGGCGAAGGGAGGCGGAGTCACCTAGTGCAG” the figure was 4110 fluorescence intensity (a.u.); with “AGACAAGTAGGCATGTAAGTGACTCTAATTGCATGCAGTTCGGAGTCACCTAGTGCAG”, 3970 fluorescence intensity (a.u.). As for “GCTGTTCAGTCGTCTCGTCAGCACGTACGCCCATCTTTGTCGGAGTCACCTAGTGCAG”, the figure is 6250 fluorescence intensity (a.u.).

With “TCGTGTTGATCTCCCATAGGGGCGGGCAGCTGCCTCCAGTCGGAGTCACCTAGTGCAG”, the binding signal was 3220 fluorescence intensity (a.u.). With “GGATGTTGGAAATAAACACGTCATGGTGTATTCCTGGCGTCGGAGTCACCTAGTGCAG” the figure was 18700 fluorescence intensity (a.u.); with “GGGTCGGCAATGAATATTTGTTCTCGAGTGACGTACAGCACGGAGTCACCTAGTGCAG”, 4240 fluorescence intensity (a.u.). With “CGCGAACACCTGGCGCCCATCCACGCATGCATCCATGCCACGGAGTCACCTAGTGCAG” the figure was 4190 fluorescence intensity (a.u.); with “TGTACAGCTCACTCATCACTGATCCGTCCCATGTGGTTCACGGAGTCACCTAGTGCAG”, 3660 fluorescence intensity (a.u.); with “TCGGCGAACGTACTTCTTGTCAGCCAGCTTATAGCCATTGCGGAGTCACCTAGTGCAG”, 3850 fluorescence intensity (a.u.). As for “AATGCCGTCCGCCCACGTGGCCAACCCGCGACCACCCGCGCGGAGTCACCTAGTGCAG”, the figure is 15000 fluorescence intensity (a.u.); as for “TTATTTGATGACTCGCTTCTCGTCCCACAGAAAATCTTCTCGGAGTCACCTAGTGCAG”, 4140 fluorescence intensity (a.u.). Consider “TTATCAATCGTCATTATACTGTGTGTAACCTGTTGGATGACGGAGTCACCTAGTGCAG”, for which the binding signal is 3320 fluorescence intensity (a.u.). With “CGATGGCTGCCACTGCCAACGTCAAGCTCCTCTCCGACGGCGGAGTCACCTAGTGCAG” the figure was 3850 fluorescence intensity (a.u.); with “GGCGGTGCTCGTCGCCGGCGCCGCCGTCAGCAATGCGCAGCGGAGTCACCTAGTGCAG”, 5490 fluorescence intensity (a.u.); with “AAGATATAGTAACCCAGTCTTCTGGAGATATTCATATAGGCGGAGTCACCTAGTGCAG”, 3860 fluorescence intensity (a.u.).

For “GAAGTTTCTAGAAGCTTATTCCAAGCTCCACGATGCCCTCCGGAGTCACCTAGTGCAG”, the binding signal was 3380 fluorescence intensity (a.u.). With “CGGGAGAGAGGATCGGGAGAGATAGGGTTAGGGTTAGGGTCGGAGTCACCTAGTGCAG” the figure was 3320 fluorescence intensity (a.u.).
